These are yes or no findings as the source states them, for the method shown. Binding seen in cells or lysates may run through a third protein. Some binding calls cover weakened binding; strength is not graded here.
Target: T1, SET domain-containing protein 8 (SETD8), lysine methyltransferase 8 (human (endogenous in HGECs)) (UniProt Q9NQR1)
T1 sequence: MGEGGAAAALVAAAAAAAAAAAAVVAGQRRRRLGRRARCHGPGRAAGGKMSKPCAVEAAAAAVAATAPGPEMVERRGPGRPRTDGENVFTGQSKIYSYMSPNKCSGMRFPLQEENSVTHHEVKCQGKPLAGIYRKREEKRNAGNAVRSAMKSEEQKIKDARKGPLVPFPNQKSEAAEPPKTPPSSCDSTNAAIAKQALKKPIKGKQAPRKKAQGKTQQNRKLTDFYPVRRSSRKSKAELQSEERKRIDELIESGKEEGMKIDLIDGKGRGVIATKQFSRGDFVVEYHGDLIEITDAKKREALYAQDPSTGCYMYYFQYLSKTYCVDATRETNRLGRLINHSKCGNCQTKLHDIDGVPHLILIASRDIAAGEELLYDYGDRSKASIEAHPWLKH
Assay: co-IP; endogenous IP from HGEC lysate; primary antibodies and protein A/G Dynabeads, 4 °C overnight; input, IgG and IP fractions analysed by Western blot

By UniProt entry, the sequences of proteins in these tests, tags left out.
UniProt P28698: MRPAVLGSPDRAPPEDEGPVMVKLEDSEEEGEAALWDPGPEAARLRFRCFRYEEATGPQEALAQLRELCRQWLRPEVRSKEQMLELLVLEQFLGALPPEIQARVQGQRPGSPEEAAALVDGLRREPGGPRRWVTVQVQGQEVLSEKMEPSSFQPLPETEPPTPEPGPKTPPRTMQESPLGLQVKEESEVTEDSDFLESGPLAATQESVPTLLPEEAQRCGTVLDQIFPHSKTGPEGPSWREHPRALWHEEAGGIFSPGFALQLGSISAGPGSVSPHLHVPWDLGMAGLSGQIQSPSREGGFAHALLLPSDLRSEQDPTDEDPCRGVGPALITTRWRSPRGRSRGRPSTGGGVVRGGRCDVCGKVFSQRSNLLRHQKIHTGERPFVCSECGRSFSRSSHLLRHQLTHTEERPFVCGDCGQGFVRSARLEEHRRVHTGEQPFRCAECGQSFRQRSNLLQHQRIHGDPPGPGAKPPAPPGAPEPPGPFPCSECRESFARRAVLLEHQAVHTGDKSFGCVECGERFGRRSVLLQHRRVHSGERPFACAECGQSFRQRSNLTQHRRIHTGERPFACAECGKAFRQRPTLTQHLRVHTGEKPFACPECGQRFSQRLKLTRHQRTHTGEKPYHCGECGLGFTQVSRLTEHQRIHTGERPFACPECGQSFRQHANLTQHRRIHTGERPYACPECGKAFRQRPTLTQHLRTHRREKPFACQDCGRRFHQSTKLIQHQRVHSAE

## Myeloid zinc finger 1 (MZF1) (from UniProt P28698 1-734)
  binding: binds
